The values that follow come from doi:10.1101/2025.10.31.685692.

By UniProt entry, the sequences of proteins in these tests, tags left out.
UniProt Q96L73: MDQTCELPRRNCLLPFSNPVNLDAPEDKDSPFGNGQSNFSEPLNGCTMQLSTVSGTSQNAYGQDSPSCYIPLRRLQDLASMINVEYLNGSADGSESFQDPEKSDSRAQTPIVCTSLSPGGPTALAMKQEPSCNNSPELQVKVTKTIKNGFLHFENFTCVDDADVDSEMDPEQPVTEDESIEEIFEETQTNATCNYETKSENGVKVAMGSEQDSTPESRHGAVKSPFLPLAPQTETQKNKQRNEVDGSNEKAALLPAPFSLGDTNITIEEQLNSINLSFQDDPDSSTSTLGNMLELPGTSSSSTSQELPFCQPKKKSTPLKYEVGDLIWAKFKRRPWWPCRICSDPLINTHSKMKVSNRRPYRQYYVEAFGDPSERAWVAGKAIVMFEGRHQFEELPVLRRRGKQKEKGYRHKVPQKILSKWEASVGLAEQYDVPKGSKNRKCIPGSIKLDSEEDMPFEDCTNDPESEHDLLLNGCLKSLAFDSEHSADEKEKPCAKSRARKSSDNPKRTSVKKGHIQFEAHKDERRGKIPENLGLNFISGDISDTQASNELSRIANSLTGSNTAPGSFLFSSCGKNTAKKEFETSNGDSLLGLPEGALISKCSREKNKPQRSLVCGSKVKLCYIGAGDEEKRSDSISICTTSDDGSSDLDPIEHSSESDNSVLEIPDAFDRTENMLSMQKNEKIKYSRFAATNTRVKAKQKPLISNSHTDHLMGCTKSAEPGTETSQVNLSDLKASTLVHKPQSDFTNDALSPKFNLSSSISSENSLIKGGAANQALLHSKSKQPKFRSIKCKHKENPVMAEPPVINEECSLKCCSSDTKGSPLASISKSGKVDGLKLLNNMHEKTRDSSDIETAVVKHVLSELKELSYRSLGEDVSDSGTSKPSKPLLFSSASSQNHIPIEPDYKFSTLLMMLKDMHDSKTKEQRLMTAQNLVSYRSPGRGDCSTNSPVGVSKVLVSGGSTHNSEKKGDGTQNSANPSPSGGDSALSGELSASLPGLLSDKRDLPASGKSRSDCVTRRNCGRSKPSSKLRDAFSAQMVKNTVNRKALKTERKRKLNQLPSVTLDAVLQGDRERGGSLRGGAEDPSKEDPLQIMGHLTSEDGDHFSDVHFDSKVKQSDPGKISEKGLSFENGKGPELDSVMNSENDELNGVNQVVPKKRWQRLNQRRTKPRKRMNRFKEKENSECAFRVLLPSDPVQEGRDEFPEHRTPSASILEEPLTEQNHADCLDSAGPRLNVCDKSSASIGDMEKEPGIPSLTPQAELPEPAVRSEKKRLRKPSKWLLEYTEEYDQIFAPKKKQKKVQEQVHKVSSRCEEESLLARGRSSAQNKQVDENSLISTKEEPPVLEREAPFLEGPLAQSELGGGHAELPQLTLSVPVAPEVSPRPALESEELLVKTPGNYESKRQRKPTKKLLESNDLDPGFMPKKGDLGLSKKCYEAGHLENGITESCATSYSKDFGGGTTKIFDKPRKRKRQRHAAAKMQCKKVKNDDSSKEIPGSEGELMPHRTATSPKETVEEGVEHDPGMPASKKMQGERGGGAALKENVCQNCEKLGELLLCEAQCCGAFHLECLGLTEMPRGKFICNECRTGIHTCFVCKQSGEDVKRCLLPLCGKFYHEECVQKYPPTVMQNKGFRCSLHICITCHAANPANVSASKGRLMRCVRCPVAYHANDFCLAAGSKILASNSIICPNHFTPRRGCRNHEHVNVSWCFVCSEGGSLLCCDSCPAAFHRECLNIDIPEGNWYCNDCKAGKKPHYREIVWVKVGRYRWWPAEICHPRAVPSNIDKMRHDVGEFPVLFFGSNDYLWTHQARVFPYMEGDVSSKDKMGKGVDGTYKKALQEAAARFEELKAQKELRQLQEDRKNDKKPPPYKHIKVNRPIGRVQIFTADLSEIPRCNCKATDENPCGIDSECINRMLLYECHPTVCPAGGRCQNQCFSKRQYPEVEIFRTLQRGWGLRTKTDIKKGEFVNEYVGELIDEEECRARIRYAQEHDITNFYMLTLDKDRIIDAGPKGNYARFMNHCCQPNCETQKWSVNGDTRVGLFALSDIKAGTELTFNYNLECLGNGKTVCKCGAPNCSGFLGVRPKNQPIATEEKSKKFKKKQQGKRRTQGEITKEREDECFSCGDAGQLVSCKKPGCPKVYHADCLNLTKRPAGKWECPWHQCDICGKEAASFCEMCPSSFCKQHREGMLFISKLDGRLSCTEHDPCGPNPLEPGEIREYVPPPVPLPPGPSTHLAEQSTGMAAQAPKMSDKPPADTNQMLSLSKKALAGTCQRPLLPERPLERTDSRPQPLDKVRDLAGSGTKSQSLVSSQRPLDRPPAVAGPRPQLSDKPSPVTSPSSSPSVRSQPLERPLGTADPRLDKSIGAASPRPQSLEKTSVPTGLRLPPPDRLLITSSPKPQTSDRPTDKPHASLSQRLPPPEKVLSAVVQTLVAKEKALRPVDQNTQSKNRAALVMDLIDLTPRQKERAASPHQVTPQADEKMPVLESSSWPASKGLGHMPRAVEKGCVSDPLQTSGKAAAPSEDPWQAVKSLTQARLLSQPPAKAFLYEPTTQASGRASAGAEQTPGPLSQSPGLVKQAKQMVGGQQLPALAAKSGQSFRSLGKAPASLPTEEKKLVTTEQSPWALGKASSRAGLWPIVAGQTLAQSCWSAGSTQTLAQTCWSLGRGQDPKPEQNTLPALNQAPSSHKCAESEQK
UniProt Q15291: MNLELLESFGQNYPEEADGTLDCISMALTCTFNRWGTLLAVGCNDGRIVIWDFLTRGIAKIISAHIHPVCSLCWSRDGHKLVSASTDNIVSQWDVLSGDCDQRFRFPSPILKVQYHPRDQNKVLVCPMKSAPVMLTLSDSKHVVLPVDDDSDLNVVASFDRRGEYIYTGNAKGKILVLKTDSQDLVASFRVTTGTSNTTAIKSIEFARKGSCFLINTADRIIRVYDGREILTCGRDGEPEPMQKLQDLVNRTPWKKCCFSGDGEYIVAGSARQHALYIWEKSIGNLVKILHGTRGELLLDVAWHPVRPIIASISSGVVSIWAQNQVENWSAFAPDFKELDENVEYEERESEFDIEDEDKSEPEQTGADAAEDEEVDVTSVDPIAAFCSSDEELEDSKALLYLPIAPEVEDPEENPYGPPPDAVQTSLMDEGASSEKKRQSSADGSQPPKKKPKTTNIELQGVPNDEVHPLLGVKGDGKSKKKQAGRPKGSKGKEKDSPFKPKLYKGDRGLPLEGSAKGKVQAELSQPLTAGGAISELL
UniProt Q9UBL3: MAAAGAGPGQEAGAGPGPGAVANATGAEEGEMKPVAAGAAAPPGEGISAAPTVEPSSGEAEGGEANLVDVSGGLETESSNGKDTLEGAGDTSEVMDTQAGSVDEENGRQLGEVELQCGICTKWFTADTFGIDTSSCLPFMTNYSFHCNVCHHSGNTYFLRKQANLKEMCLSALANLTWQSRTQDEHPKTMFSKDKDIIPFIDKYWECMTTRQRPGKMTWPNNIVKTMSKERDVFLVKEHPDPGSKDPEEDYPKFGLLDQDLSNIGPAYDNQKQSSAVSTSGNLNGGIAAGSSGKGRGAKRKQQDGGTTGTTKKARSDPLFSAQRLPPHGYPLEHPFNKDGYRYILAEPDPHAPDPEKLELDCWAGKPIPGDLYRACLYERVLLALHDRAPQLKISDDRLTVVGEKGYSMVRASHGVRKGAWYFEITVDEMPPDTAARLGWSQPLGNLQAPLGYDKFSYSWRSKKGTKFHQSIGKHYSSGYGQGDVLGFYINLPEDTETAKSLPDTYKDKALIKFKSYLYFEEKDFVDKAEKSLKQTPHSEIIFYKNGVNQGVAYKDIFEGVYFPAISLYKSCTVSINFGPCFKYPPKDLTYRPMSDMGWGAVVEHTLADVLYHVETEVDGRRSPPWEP
UniProt O88491: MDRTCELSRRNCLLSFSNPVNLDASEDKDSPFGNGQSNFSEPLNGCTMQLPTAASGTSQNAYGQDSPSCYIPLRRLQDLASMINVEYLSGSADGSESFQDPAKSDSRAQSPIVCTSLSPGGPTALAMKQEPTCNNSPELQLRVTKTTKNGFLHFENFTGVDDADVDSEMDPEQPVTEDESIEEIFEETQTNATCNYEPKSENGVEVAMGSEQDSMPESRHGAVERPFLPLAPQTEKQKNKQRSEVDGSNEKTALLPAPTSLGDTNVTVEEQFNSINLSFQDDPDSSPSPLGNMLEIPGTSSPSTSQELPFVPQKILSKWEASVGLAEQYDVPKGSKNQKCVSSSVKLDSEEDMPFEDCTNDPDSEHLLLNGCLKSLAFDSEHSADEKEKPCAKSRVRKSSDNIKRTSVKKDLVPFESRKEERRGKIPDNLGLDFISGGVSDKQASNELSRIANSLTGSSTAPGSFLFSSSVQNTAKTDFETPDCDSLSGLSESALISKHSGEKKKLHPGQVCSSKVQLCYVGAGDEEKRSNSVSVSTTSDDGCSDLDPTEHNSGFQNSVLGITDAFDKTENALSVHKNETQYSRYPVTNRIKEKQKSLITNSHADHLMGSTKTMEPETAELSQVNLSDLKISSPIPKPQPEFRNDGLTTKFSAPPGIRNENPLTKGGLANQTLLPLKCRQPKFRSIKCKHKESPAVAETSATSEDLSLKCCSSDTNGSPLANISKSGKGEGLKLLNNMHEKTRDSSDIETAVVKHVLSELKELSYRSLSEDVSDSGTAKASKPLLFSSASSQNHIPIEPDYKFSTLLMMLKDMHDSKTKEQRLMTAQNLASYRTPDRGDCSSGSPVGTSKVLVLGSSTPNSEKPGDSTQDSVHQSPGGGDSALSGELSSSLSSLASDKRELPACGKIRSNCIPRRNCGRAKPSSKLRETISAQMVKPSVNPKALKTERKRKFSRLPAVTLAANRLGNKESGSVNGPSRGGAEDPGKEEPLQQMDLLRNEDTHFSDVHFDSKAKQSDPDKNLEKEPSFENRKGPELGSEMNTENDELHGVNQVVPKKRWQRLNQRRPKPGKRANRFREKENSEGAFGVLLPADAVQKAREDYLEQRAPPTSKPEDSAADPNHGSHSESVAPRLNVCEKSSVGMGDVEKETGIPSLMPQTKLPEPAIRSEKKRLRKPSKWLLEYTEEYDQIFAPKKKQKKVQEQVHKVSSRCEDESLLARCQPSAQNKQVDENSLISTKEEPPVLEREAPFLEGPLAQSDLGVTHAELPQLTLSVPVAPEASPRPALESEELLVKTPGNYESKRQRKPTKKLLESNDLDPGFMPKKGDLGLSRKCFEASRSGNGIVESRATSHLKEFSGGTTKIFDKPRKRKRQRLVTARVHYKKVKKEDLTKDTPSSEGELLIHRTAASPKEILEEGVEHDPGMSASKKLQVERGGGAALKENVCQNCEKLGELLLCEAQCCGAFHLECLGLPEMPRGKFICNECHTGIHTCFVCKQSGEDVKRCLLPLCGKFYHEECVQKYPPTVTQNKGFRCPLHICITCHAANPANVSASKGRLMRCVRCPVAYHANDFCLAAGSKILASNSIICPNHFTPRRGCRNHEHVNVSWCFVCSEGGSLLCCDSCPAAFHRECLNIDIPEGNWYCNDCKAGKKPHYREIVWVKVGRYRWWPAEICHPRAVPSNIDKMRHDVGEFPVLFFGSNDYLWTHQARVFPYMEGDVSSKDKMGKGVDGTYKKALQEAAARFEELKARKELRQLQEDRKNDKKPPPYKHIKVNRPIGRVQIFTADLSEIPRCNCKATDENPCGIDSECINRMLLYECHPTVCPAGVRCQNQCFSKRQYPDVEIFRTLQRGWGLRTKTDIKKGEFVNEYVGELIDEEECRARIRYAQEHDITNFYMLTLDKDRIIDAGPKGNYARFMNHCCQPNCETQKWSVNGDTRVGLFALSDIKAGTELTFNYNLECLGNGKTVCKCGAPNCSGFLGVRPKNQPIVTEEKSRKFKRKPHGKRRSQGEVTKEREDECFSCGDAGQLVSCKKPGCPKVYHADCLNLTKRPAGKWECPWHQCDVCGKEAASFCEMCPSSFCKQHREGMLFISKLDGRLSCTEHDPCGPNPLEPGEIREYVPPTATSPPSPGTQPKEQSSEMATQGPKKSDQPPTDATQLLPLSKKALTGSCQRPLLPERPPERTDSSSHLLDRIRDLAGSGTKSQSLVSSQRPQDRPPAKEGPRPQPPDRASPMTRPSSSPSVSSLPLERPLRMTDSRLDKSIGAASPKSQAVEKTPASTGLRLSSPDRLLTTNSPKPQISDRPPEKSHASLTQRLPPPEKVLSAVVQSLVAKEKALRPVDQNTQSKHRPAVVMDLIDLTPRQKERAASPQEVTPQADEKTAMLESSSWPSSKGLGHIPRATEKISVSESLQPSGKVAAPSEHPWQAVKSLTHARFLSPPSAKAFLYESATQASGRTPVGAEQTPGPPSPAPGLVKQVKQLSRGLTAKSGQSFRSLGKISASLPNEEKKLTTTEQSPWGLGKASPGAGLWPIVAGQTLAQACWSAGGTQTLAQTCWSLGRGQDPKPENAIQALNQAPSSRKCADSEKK

No constants are given. Whether binding was seen depends on the method and setting. Binding seen in cells or lysates may run through a third protein. These calls come from enrichment with a bait or labelling near it, and not all partners need be listed. Where a sequence is shown, tags or fusion partners need not be part of it.

The first test deals with T1, FLAG-HA-tagged ZMYND11, wild type, expressed in HEK293T cells (UniProt Q15326).
T1 sequence: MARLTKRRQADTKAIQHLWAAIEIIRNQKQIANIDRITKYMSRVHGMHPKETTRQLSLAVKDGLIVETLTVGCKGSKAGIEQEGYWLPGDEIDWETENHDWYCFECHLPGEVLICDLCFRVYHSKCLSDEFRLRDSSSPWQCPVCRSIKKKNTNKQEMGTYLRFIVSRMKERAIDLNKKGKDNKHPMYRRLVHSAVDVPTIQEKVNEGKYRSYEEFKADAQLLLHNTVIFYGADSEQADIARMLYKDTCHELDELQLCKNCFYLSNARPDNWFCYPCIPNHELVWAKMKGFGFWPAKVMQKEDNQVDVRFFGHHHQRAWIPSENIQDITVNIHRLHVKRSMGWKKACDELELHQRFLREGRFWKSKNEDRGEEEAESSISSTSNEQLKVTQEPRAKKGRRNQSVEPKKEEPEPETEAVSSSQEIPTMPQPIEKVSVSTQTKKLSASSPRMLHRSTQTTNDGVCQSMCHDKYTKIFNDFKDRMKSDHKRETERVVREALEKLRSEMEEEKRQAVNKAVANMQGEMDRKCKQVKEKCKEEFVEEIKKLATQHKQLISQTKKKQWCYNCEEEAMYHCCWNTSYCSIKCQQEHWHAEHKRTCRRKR
The experiment in a line: affinity purification with mass spectrometry; FLAG-tagged ZMYND11 constructs (WT, R600W, ΔMYND) or FH-GFP-SV40NLS expressed in HEK293T; anti-FLAG immunoprecipitation from nuclear lysates; quantitative tandem mass tag mass spectrometry (TMT-MS), intensities normalised to bait.
Take “NSD1, endogenous in HEK293T cells (from UniProt Q96L73 1-2696)”: the binding entry is reported as “binds”. For “RBBP5, endogenous in HEK293T cells (from UniProt Q15291 1-538)”, the binding entry is given as “binds”. As to “KMT2A (MLL1), endogenous in HEK293T cells (from UniProt Q03164 1-3969)”, the binding entry was “binds”. As for “ASH2L, endogenous in HEK293T cells (from UniProt Q9UBL3 1-628)”, the binding result is listed as “binds”.

In another test the target is T2, FLAG-HA-tagged ZMYND11 (endogenous, Zmynd11-FH knock-in mouse) (mouse (endogenous in brain tissue)) (UniProt Q8R5C8).
T2 sequence: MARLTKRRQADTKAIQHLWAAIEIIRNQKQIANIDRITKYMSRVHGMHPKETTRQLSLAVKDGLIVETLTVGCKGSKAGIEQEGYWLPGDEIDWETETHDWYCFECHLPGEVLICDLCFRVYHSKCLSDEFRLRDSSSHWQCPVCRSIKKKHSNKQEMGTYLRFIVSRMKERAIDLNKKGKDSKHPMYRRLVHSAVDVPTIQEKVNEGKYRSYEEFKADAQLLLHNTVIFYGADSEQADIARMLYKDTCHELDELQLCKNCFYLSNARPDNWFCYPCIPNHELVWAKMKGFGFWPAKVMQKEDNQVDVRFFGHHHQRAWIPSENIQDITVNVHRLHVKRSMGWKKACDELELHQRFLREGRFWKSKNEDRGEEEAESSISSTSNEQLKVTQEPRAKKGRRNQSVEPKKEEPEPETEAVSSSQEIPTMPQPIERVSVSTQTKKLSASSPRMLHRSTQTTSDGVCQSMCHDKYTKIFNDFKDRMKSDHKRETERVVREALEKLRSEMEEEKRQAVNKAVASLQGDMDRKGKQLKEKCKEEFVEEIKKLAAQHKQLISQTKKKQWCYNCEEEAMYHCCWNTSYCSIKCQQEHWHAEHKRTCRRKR
The experiment in a line: affinity purification with mass spectrometry; anti-FLAG (anti-DYKDDDK magnetic agarose) immunoprecipitation of endogenous FLAG-HA-ZMYND11 from nuclear lysates (420 mM NaCl extract plus MNase-digested chromatin, diluted to 150 mM NaCl) of Zmynd11-FH whole brain; washes NE1 + 250 mM NaCl; elution with 3XFLAG peptide; LC/MS-MS; wild-type littermates as control.
Regarding “KMT2A (MLL1), mouse brain (from UniProt P55200 1-3966)”, the binding entry was “binds”. The same measure, in the same setting: then “NSD1, mouse brain (from UniProt O88491 1-2588)”, with “binds”.
